# Entries after “also recorded” stand apart in the source; their conditions may differ. At least one read-out could not be matched to a standard name with certainty. At least one structure is not confirmed: it was looked up by name or label, or the drawing left a doubt.
# Tested on: CCR2 mRNA
# Assay: Quantitative Real Time PCR of CCR2 mRNA in TZD-treated cells
# Conditions: HepG2 cells, 24 hours; for CCR2 expression with apoptosis inhibited (plus DEVD) relative to compound only / effect on CCR2 expression relative to control: LD50 concentration; for CCR2 mRNA at 175 μM relative to LD50 concentrations: compound only; for effect on CCR2 expression relative to control: compound alone
Compound,CCR2 expression with apoptosis inhibited (plus DEVD) relative to compound only,CCR2 mRNA at 175 μM relative to LD50 concentrations,effect on CCR2 expression relative to control
Cc1c(C)c2c(c(C)c1O)CCC(C)(COc1ccc(CC3SC(=O)NC3=O)cc1)O2 (stereo not shown) [Troglitazone],increase in CCR2 expression relative to compound only treatment; also recorded: did not significantly affect CCR2 expression,–,–
CCc1ccc(CCOc2ccc(CC3SC(=O)NC3=O)cc2)nc1 (stereo not shown) [Pioglitazone],increase in CCR2 expression relative to compound only treatment,increase in CCR2 mRNA relative to LD50 concentrations,suppressed CCR2 expression below that of control levels
CN(CCOc1ccc(CC2SC(=O)NC2=O)cc1)c1ccccn1 (stereo not shown) [Rosiglitazone],did not significantly affect CCR2 expression,increase in CCR2 mRNA relative to LD50 concentrations,does not significantly affect expression of CCR2
